Source: patent US20030176678A1
No constants are given. Whether binding was seen depends on the method and setting. For some assays here: Binding seen in cells or lysates may run through a third protein. Some results given as binding are weak or reduced against the parent protein; the word gives no strength. For some assays here: Tags and fused reporters may be left off the sequences shown.

Protein sequences, listed by entry. Tags and fused reporters are not part of them. Lines headed by an entry give the natural chain unless they say otherwise; changes in a name come on top.
UniProt Q99873: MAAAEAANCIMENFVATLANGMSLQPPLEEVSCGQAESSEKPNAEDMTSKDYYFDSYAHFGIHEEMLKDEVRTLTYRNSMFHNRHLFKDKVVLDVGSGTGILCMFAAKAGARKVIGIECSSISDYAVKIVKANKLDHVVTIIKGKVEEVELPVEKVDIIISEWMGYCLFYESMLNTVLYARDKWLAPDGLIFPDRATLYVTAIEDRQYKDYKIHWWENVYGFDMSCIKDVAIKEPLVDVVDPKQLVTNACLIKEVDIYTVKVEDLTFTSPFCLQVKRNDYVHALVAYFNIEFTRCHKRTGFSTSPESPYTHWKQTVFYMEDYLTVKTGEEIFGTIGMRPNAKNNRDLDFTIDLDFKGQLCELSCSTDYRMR

Assays:
[1] = molecular target: T1, IFNAR1-IC domain fused to the Gal4 DNA binding domain (pGBT10-IFNAR1-IC) (human) (UniProt P04386+P17181); assay: yeast two-hybrid
[2] = molecular target: T1, IFNAR1-IC domain fused to the Gal4 DNA binding domain (pGBT10-IFNAR1-IC) (human); assay: yeast two-hybrid in SFY526, X-gal staining positive
[3] = molecular target: intact IFNAR1 from human cells (IFNAR1 chain of the type I interferon receptor) (human) (UniProt P17181); assay: co-immunoprecipitation of labeled flag-IR1B4 with IFNAR1 from U266S extracts by Ab 631
[4] = molecular target: intact IFNAR1 from human cells (IFNAR1 chain of the type I interferon receptor) (human) (UniProt P17181); assay: co-immunoprecipitation with anti-IFNAR1 mAb R3 on protein G beads
[5] = molecular target: intact IFNAR1 from human cells (IFNAR1 chain of the type I interferon receptor) (human) (UniProt P17181); assay: co-immunoprecipitation of labeled flag-IR1B4 with IFNAR1 from U266S detergent extracts by mAb IFNaR3
[6] = molecular target: T2, GST-IFNAR1-IC fusion protein (Glutathione S-transferase fused to the 100 amino acid long IFNAR1-IC domain) (human) (UniProt P17181); assay: GST pull-down on glutathione beads, SDS-PAGE, Phosphor-Imager
T2 sequence (looked up): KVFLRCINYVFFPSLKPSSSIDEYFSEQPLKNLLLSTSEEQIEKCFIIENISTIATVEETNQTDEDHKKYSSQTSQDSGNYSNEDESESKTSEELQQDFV

[7] = molecular target: intact IFNAR1 from human cells (IFNAR1 chain of the type I interferon receptor) (human) (UniProt P17181); assay: co-immunoprecipitation with anti-flag from transfected Cos-7 cells
[8] = molecular target: T2, GST-IFNAR1-IC fusion protein (Glutathione S-transferase fused to the 100 amino acid long IFNAR1-IC domain) (human); assay: GST pull-down

Row | binding [1] | binding [2] | binding [3] | binding [4] | binding [5] | binding [6] | binding [7] | binding [8] | Substance
1 | binds | binds | – | – | – | – | – | – | IR1B4 fused to the Gal4 activation domain (pACT clone IR1B4) (from UniProt Q99873 11-371)
2 | – | – | binds | binds | binds | binds | binds | binds | flag-IR1B4 (IR1B4 protein with a flag tag, translated in vitro in rabbit reticulocyte lysate, [35S]methionine labeled) (from UniProt Q99873 11-371)
